Data on 1 compound can be found in US20200369626A1 (Washington University, priority 2019, published 2020).

Protein sequences, listed by entry. Tags and fused reporters are not part of them.
UniProt O95136, whole entry: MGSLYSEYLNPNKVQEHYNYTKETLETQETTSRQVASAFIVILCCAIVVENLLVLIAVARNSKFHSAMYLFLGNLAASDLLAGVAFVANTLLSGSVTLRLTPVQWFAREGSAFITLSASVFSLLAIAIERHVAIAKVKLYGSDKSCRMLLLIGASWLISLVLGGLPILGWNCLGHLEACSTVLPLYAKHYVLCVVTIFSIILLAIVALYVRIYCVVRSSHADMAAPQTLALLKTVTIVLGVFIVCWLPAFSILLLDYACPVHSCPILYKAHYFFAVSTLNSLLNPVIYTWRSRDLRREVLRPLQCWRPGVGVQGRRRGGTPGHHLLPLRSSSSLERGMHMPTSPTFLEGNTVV

Structures were worked out from names or drawings and are uncertain.

The assay addresses S1PR2 (Homo sapiens, UniProt O95136). Briefly: competitive [^32P]S1P binding assay on cell membranes, S1PR2. The settings on record: read-out: IC50 S1PR2; Table 5.

`COc1cc(OC)c(NC(=O)Cn2c(=O)n(CC(=O)Nc3cccc(O)c3)c(=O)c3ccccc32)cc1Cl`: the IC50 – broadly, the midpoint of a concentration-inhibition curve – is 4.8 nM.
